Record: PubChem BioAssay AID652259 (Drosophila RNAi Screening Center, 2013)
The screen tested about 22,000 reagents; below is an unselected part of those with a known target gene and a result. In the full data, 233 (1.1%) were called active. 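Light values are raw, unnormalised plate reads; the ratio scores behind the reporter calls were not deposited.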 Entries without a mark were called inactive. The numbers tell different reagents against one gene apart. A plus sign joins genes that one reagent is predicted to hit. The record does not give: the amount of reagent, the time to read-out, the dose of the treatment.

- Test: 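Genome-wide hunt for genes that control Wingless pathway activity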 (primary screen)
- System: Drosophila clone 8 imaginal disc epithelial cells
- Reagents: long dsRNA against Drosophila genes
- Conditions: pathway stimulated by co-transfected Wingless expression plasmid
- Measured: 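Dual luciferase reads per well after Wingless plasmid stimulation: reporter firefly light and Renilla control light; activity is firefly divided by Renilla, a ratio not deposited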
- Direction: firefly reporter light: higher = more Wg reporter light, before normalisation; Renilla control light: higher = more transfected or surviving cells
- Active means: 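Strong candidates differ from their plate mean by at least two out of four per-plate statistical tests; weak candidates meet just one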
- Calls: active = candidate regulator (raises or lowers reporter); inactive = not a candidate

With knock-down of dbo (diablo), the record shows firefly reporter light, replicate 1 = 8288; Renilla control light, replicate 1 = 3216.
mey (morpheyus) showed firefly reporter light, replicate 1 = 1776; firefly reporter light, replicate 2 = 5531; Renilla control light, replicate 1 = 939; Renilla control light, replicate 2 = 2336.
CG10479 gave firefly reporter light, replicate 1 = 6377; Renilla control light, replicate 1 = 2643.
With knock-down of CG3803, the record shows firefly reporter light, replicate 1 = 3128; firefly reporter light, replicate 2 = 8072; Renilla control light, replicate 1 = 722; Renilla control light, replicate 2 = 2295.
For Hat1 (Histone acetyltransferase 1) the deposit lists firefly reporter light, replicate 1 = 17761; Renilla control light, replicate 1 = 4400.
Against asRNA:Eig63F-2 + Eip63F-1, the values are firefly reporter light, replicate 1 = 3.60e5; firefly reporter light, replicate 2 = 4.00e5; Renilla control light, replicate 1 = 1.45e5; Renilla control light, replicate 2 = 1.31e5.
Against CG7300 the deposit lists firefly reporter light, replicate 1 = 9186; Renilla control light, replicate 1 = 2599.
Against CG8079 #1 the deposit lists firefly reporter light, replicate 1 = 13953; Renilla control light, replicate 1 = 3465.
CG8079 #2 scored firefly reporter light, replicate 1 = 6913; Renilla control light, replicate 1 = 2099.
For Pka-C1 (Protein kinase, cAMP-dependent, catalytic subunit 1), the values are firefly reporter light, replicate 1 = 8249; Renilla control light, replicate 1 = 3252.
Silencing of CG7849 resulted in: firefly reporter light, replicate 1 = 2934; firefly reporter light, replicate 2 = 7050; Renilla control light, replicate 1 = 788; Renilla control light, replicate 2 = 2587.
CG42812 showed firefly reporter light, replicate 1 = 15334; Renilla control light, replicate 1 = 12832.
After knock-down of Gbeta5 (G protein beta subunit 5) the results were firefly reporter light, replicate 1 = 11574; Renilla control light, replicate 1 = 7146.
Depletion of Rad51D (Rad51 recombinase D) gave: firefly reporter light, replicate 1 = 2792; firefly reporter light, replicate 2 = 10060; Renilla control light, replicate 1 = 801; Renilla control light, replicate 2 = 3180.
For fand (fandango) the deposit lists firefly reporter light, replicate 1 = 10299; Renilla control light, replicate 1 = 2477.
With knock-down of CG14856, the screen gave firefly reporter light, replicate 1 = 15867; Renilla control light, replicate 1 = 4043.
tilB (touch insensitive larva B) scored firefly reporter light, replicate 1 = 15361; Renilla control light, replicate 1 = 8976.
CG9626 gave firefly reporter light, replicate 1 = 5035; Renilla control light, replicate 1 = 1828.
Depletion of CLS (Cardiolipin synthase) gave: firefly reporter light, replicate 1 = 23531; Renilla control light, replicate 1 = 17496.
Knock-down of CG30391 gave: firefly reporter light, replicate 1 = 5.31e5; firefly reporter light, replicate 2 = 5.42e5; Renilla control light, replicate 1 = 2.18e5; Renilla control light, replicate 2 = 1.76e5.
CG14708 gave firefly reporter light, replicate 1 = 13029; Renilla control light, replicate 1 = 1680.
CG17124 scored firefly reporter light, replicate 1 = 4066; firefly reporter light, replicate 2 = 8563; Renilla control light, replicate 1 = 1731; Renilla control light, replicate 2 = 4385.
For Caf1-105 (Chromatin assembly factor 1, p105 subunit), the entry reads firefly reporter light, replicate 1 = 2645; firefly reporter light, replicate 2 = 8674; Renilla control light, replicate 1 = 556; Renilla control light, replicate 2 = 2557.
For BOD1 (Biorientation Defective 1) the deposit lists reporter change call, replicate 1 = Wg reporter activity raised; firefly reporter light, replicate 1 = 14243; firefly reporter light, replicate 2 = 5011; Renilla control light, replicate 1 = 1425; Renilla control light, replicate 2 = 912.
Eip63F-1 (Ecdysone-induced protein 63F 1) #1 scored firefly reporter light, replicate 1 = 3953; Renilla control light, replicate 1 = 1936.
Silencing of Eip63F-1 (Ecdysone-induced protein 63F 1) #2 resulted in: firefly reporter light, replicate 1 = 10121; Renilla control light, replicate 1 = 5148.

A stretch from the list above:
CG8079 #1 | firefly reporter light, replicate 1: 13953; Renilla control light, replicate 1: 3465
CG8079 #2 | firefly reporter light, replicate 1: 6913; Renilla control light, replicate 1: 2099
